# Results published in PubChem BioAssay AID652015 (National Center for Advancing Translational Sciences (NCATS), 2013).
# Amino acid sequences for entries named in this document (tags omitted).
# UniProt P27652, whole entry, looked up: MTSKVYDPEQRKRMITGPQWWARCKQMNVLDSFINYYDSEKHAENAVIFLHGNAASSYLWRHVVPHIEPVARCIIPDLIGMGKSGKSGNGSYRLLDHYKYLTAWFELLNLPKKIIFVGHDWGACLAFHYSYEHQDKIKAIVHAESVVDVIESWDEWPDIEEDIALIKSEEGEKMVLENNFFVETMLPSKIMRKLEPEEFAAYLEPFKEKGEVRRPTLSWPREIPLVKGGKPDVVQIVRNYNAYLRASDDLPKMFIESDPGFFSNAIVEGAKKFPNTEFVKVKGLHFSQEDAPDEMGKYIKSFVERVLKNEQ
# Where “and” joins values, the source holds several entries; their conditions need not be identical. Equal values may be shown once. The inconclusive results got no clear call from the source; some entries with a clear call stand among them for comparison. Where the call is inconclusive, the potency comes from a doubtful curve fit. Calls of active or inactive are those of the source. Calls follow the shape of the dose curve; as a rule, active = well fitted inhibition curve with a large enough effect; inconclusive = small, poorly fitted or top-dose-only effect; inactive = no such curve, though single readings can be large or run the other way.
# Biological target: Coelenterazine h 2-monooxygenase (Renilla reniformis) (UniProt P27652)
# Test: qHTS Assay for Inhibitors of Sea Pansy Luciferase from the GSK Published Protein Kinase Inhibitor Set
# Settings: purified Renilla luciferase, luminescence; series mostly up to 57.5 µM
# Excerpt: FLuc (firefly luciferase) is the prototypical bioluminescent reporter gene from Photinus pyralis.[1] The enzyme catalyzes the oxidation luciferin via luciferin-AMP to produce light. FLuc is used in cell-based reporter gene-based assays for screening small molecule chemical libraries. However, small molecule luciferase inhibitors present in most large chemical libraries are often enriched in the output of high throughput screens using this reporter sometimes complicating interpretation and candidate selection.
# RLuc is a bioluminescent reporter gene luciferase from Renilla reniformis, also known as the sea pansy. RLuc uses the luciferin substrate coelenterazine. RLuc is often used in combination with the nonhomologous luciferase FLuc (firefly luciferease) as a trasfection or pathway normalization control. Recently, non-homologous reporters have been described for high throughput screening 'coincidence' reporter gene strategies.
# 1. Fan F, Wood KV (2007) Bioluminescent assays for high-throughput screening. Assay Drug Dev Technol 5: 127-136.
# 2. Thorne N, Inglese J, Auld DS (2010) Illuminating insights into firefly luciferase and other bioluminescent reporters used in chemical biology. Chem Biol 17: 646-657.
# 3. […] Chem Biol 19: 1060-1072.
# 4. Michelini E, Cevenini L, Mezzanotte L, Coppa A, Roda A (2010) Cell-based assays: fuelling drug discovery. Anal Bioanal Chem 398: 227-238.
# 5. Cheng KC, Inglese J (2012) A coincidence reporter-gene system for high-throughput screening. Nat Methods 9: 937.
# Biochemical renilla luciferase enzyme assay
# NCGC Assay Protocol Summary:
# Reagents: 50mM Tris acetate, pH 7.5; 100uM NaCl; 5uM Coelenterazine H (Promega #S2011); 0.01% Tween-20; 0.05% BSA; 1nM R. reniformis luciferase (Nanolight Technologies #314)
# Control compounds used were a known renilla luciferase inhibitor BTS (Tocris Biosciences #1870) and DMSO.
# Three microliters containing renilla luciferase substrate in buffer (final concentrations: 50mM Tris acetate, pH 7.5, 100uM NaCl, 0.01% Tween-20, 0.05% BSA, 5uM coelenterazine h) are dispensed into each well of a Greiner white, solid-bottom 1536-well format plate using a flying reagent dispenser (FRD). These assay plates were then treated with 23nL of compound or DMSO using a Kalypsys pin tool, which allows for delivery of a 7-point interplate titration of each compound to the assay plate (quantitative HTS), with final compound concentrations ranging from approximately 60uM to 300pM. One microliter of renilla luciferase in 50mM Tris-acetate buffer was then delivered by FRD to each well for a final enzyme concentration of 1nM. Luciferase activity was then measured using an Envision plate reader (PerkinElmer), with an average incubation time of 2 min.
# Potency is read from the fitted curve at half-maximal effect.
row,SMILES,Potency
1,Nc1nc(-c2ccccn2)c(-c2ccc3ncccc3n2)s1,inactive
2,Cc1ccc(NC(=O)c2ccnc(N3CCCC3)c2)cc1-c1ccc(C(=O)NCC2CC2)cc1,"inconclusive: 29.1 µM [inhibitor, partial curve]"
3,CC(Oc1cc(-n2cnc3ccc(OCC4CCN(C)CC4)cc32)sc1C(N)=O)c1ccccc1C(F)(F)F (stereo not given),"inconclusive: 25.9 µM [inhibitor, partial curve]"
4,COC(=O)c1ccc2c(c1)/C(=C/c1cc(Br)c(O)c(Br)c1)C(=O)N2,"inconclusive: 13 µM [inhibitor, partial curve]"
5,O=C(OC1CNC(C#Cc2cc3ncnc(Nc4ccc5c(ccn5Cc5cc(F)ccc5F)c4)c3s2)C1)N1CCOCC1 (stereo not given),inactive
6,NS(=O)(=O)c1ccc(N=Cc2c(O)[nH]c3ccc4ncsc4c23)cc1,"inconclusive: 16.3 µM [inhibitor, partial curve] and inconclusive: 32.6 µM [inhibitor, partial curve, poor fit]"
7,O=C1NC(=O)C(N2CCc3ccccc32)=C1c1ccc(Cl)cc1,"inconclusive: 20.6 µM [inhibitor, partial curve]"
8,NS(=O)(=O)c1cccc(-c2ccc3c(NC(=O)C4CC4)n[nH]c3c2)c1,"inconclusive: 36.6 µM [inhibitor, single point]"
9,Cc1cc(-c2ccccn2)cc(C)c1C=Cc1cncc(-c2nn[nH]n2)c1,"inconclusive: 32.6 µM [inhibitor, partial curve]"
10,CCS(=O)(=O)c1ccc(OC)c(Nc2ncc(-c3ccccc3Cl)o2)c1,"inconclusive: 18.3 µM [inhibitor, partial curve]"
11,CN1CCN(Cc2ccc(-c3cc4ncnc(Nc5ccc(OCc6cccc(F)c6)c(Cl)c5)c4s3)o2)CC1,active: 20.6 µM
12,CCOc1ccc2c(-c3ccnc(Nc4cc(OC)cc(C(F)(F)F)c4)n3)cnn2n1,inactive
13,Nc1ncc(-c2cccc(S(N)(=O)=O)c2)c2scc(-c3ccc(F)c(Cl)c3)c12,"inconclusive: 36.6 µM [inhibitor, partial curve]"
14,COc1ccc(COc2ccc(Cc3cnc(N)nc3N)cc2OC)cc1,inactive
15,O=C1Nc2ccc(C(=O)c3ccco3)cc2/C1=C/c1cc(Cl)c(O)c(Cl)c1,active: 16.3 µM
16,CN(C)c1cc2c(Nc3ccc4nc(Cc5ccccc5)[nH]c4c3)ncnc2cn1,"inconclusive: 18.3 µM [inhibitor, partial curve]"
17,CCn1c(-c2nonc2N)nc2c(C#CCN)ncc(OCCCN)c21,"inconclusive: 23.1 µM [inhibitor, partial curve]"
18,CC(Oc1cc(-n2cnc3ccc(OC4CCN(C)CC4)cc32)sc1C(N)=O)c1ccccc1Cl (stereo not given),"inconclusive: 20.6 µM [inhibitor, partial curve]"
19,Nc1ncnc2occ(-c3ccc(NC(=O)Nc4cc(C(F)(F)F)cc(C(F)(F)F)c4)cc3)c12,"inconclusive: 16.3 µM [inhibitor, partial curve]"
20,NS(=O)(=O)c1ccc(N=Nc2c(=O)[nH]c3ccc4[nH]cccc4c23)cc1,"inconclusive: 23.1 µM [inhibitor, partial curve]"

row,SMILES,Potency
1,Nc1nc(-c2ccc3c(c2)C(=Cc2cc(Br)c(O)c(Br)c2)C(=O)N3)cs1,"inconclusive: 20.6 µM [inhibitor, partial curve]"
2,COc1ccc2cc(-c3c(-c4ccncc4)nc(-c4ccc(S(C)=O)cc4)n3C)ccc2c1 (stereo not given),inactive
3,COc1cc2c(cc1Nc1nc(N3CCc4ccccc43)c3cc[nH]c3n1)N(C(=O)CN(C)C)CC2,"inconclusive: 23.1 µM [inhibitor, partial curve, poor fit]"
4,O=C1Nc2ccc(I)cc2C1=Cc1cc(Br)c(O)c(Br)c1,"inconclusive: 20.6 µM [inhibitor, partial curve]"
5,COc1c(C(N)=O)cc(-c2ccc(Cl)cc2)cc1-c1ccc(S(N)(=O)=O)cc1,inactive
6,Cn1cc(C=C2C(=O)Nc3cccnc32)c2ccccc21,"inconclusive: 20.6 µM [inhibitor, partial curve]"
7,CCCN1CCCC(c2ccc(Nc3nc(Nc4cc(F)ccc4C(N)=O)c4cc[nH]c4n3)c(OC)c2)C1 (stereo not given),"inconclusive: 32.6 µM [inhibitor, single point]"
8,O=C1NC(=O)C(c2cccc(Cl)c2)=C1Nc1ccc(O)c(Cl)c1,"inconclusive: 36.6 µM [inhibitor, single point]"
9,Fc1ccc(-c2nn3ccccc3c2-c2ccncc2)cc1,"inconclusive: 23.1 µM [inhibitor, partial curve]"
10,c1ccc(Cc2nc3ccc(Nc4ncnc5ccccc45)cc3[nH]2)cc1,"inconclusive: 18.3 µM [inhibitor, partial curve]"
11,CN(C)c1ccc2[nH]c(O)c(C=Nc3ccc(S(N)(=O)=O)cc3)c2c1,active: 5.8 µM
12,Cc1c2ccc(N(C)c3ccnc(Nc4cccc(S(N)(=O)=O)c4)n3)cc2nn1C,active: 18.3 µM
13,COc1ccc(-c2cc3c(N)ncnc3o2)cc1,inactive
14,CCn1c(-c2nonc2N)nc2c(C#CC(C)(C)O)ncc(OCC3CCCN3)c21 (stereo not given),"inconclusive: 18.3 µM [inhibitor, partial curve]"
15,C#Cc1cccc(Nc2ncnc3ccc(OCCCCNCCS(C)(=O)=O)cc23)c1,"inconclusive: 29.1 µM [inhibitor, single point]"
16,Cc1ccc(O)cc1Nc1ccnc2cc(-c3ccccn3)ccc12,"inconclusive: 23.1 µM [inhibitor, partial curve]"
17,CS(=O)(=O)c1ccc(Oc2nccc(-c3c(-c4ccc(F)cc4)ncn3C3CCNCC3)n2)cc1,"inconclusive: 23.1 µM [inhibitor, partial curve, poor fit]"
18,CS(=O)(=O)Nc1ccc(-c2ccc3c(NC(=O)C4CC4)n[nH]c3c2)cc1,inactive
19,CCn1c(-c2nonc2N)nc2c(C#CC(C)(C)O)nc(OCCNC)cc21,"inconclusive: 20.6 µM [inhibitor, partial curve, poor fit]"
20,CC(C)=Cc1cccc2[nH]c(O)c(N=Nc3ccc(S(N)(=O)=O)cc3)c12,"inconclusive: 20.6 µM [inhibitor, partial curve, poor fit]"

# Part of the list above in order of formula weight, descending.
row,SMILES,Potency
2,COc1ccc2cc(-c3c(-c4ccncc4)nc(-c4ccc(S(C)=O)cc4)n3C)ccc2c1 (stereo not given),inactive
15,C#Cc1cccc(Nc2ncnc3ccc(OCCCCNCCS(C)(=O)=O)cc23)c1,"inconclusive: 29.1 µM [inhibitor, single point]"
14,CCn1c(-c2nonc2N)nc2c(C#CC(C)(C)O)ncc(OCC3CCCN3)c21 (stereo not given),"inconclusive: 18.3 µM [inhibitor, partial curve]"
20,CC(C)=Cc1cccc2[nH]c(O)c(N=Nc3ccc(S(N)(=O)=O)cc3)c12,"inconclusive: 20.6 µM [inhibitor, partial curve, poor fit]"
11,CN(C)c1ccc2[nH]c(O)c(C=Nc3ccc(S(N)(=O)=O)cc3)c2c1,active: 5.8 µM
10,c1ccc(Cc2nc3ccc(Nc4ncnc5ccccc45)cc3[nH]2)cc1,"inconclusive: 18.3 µM [inhibitor, partial curve]"
8,O=C1NC(=O)C(c2cccc(Cl)c2)=C1Nc1ccc(O)c(Cl)c1,"inconclusive: 36.6 µM [inhibitor, single point]"
9,Fc1ccc(-c2nn3ccccc3c2-c2ccncc2)cc1,"inconclusive: 23.1 µM [inhibitor, partial curve]"
